Results taken from patent US20230272050A1 (NAVIGO PROTEINS, published 2023).

Assays:
[1] = molecular target: receptor binding domain (RBD) of the spike protein of SARS-Cov-2 (SARS-CoV-2, UniProt P0DTC2 319-541); assay: SPR, Biacore 3000
[2] = molecular target: T1, S1 domain of the spike protein of SARS-Cov-2 (SARS-CoV-2, UniProt P0DTC2 16-685); assay: SPR, Biacore 3000
T1 construct: also called S1-His; SARS-CoV2 S1 protein

B1: fusion protein 212895 (SEQ ID NO: 29) (designed binder)
chain: AVLDIAQHSATEEIWWLPNLTKQQKVWFIMSLTQDPSVSKEVLGEAQKLNDSQAPKIAAQHDKIQQAADKEILHLPNLTEEQRNKFRQSLRDDPSVSAEILAEAKKLNDAQAPKIAAQHDKIQQAADKEILHLPNLTEEQRNKFRQSLRDDPSVSAEILAEAKKLNDAQAPKIAAQHDKIQQAADKEILHLPNLTEEQRNKFRQSLRDDPSVSAEILAEAKKLNDAQAPKC
off rate, fold against 212434 (SEQ ID NO: 1) [1]: ~3 fold faster | on-rate, fold against 212434 [2]: 10 fold lower

B2: fusion protein 212896 (SEQ ID NO: 30) (designed binder)
chain: AVLDIDQHAATEEIWWLPNLTKQQKVWFIMSLTQDPSVSLEILAEAKKLNDAQAPKIAAQHDKIQQAADKEILHLPNLTEEQRNKFRQSLRDDPSVSAEILAEAKKLNDAQAPKIAAQHDKIQQAADKEILHLPNLTEEQRNKFRQSLRDDPSVSAEILAEAKKLNDAQAPKIAAQHDKIQQAADKEILHLPNLTEEQRNKFRQSLRDDPSVSAEILAEAKKLNDAQAPKC
notes: also called Praesto85_212896 (as resin)
off rate, fold against 212434 (SEQ ID NO: 1) [1]: ~3 fold faster | on-rate, fold against 212434 [2]: 10 fold lower
